# The other results are listed elsewhere or left out.
# B1: SspB (Streptococcus gordonii), P16952 (protein)
# chain: MKNKKEVYGFRKSKVAKTLCGAVLGTALIAFADKAVFADEVTETTSTSTVEVATTGNPATNLPEAQGEMSQVAKESQAKAGSKESALPVEVSSADLDKAVADAKSAGVKVVQDETKDKGTATTATDNAQKQDEIKSDYAKQAEEIKTTTEAYKKEVAAHQAETDKINAENKAADDKYQKDLKSHQEEVEKINTANATAKAEYEAKLAQYQKDLATVKKANEDSQQDYQNKLSAYQTELARVQKANAEAKEAYEKAVKENTAKNEALKVENEAIKQRNETAKATYEAAMKQYEADLAAIKKANEDNDADYQAKLAAYQTELARVQKANAEAKEAYDKAVKENTAKNTAIQAENEAIKQRNETAKATYDAAVKKYEADLAAVKQANATNEADYQAKLAAYQTELARVQKANADAKATYEKAVEDNKAKNAAIKAENEEIKQRNAVAKTDYEAKLAKYEADLAKYKKEFAAYTAALAEAESKKKQDGYLSEPRSQSLNFKSEPNAIRTIDSSVHQYGQQELDALVKSWGISPTNPDRKKSRAYSYFNAINSNNTYAKLVLEKDKPVDVTYTGLKNSSFNGKKISKVVYTYTLKETGFNDGTKMTMFASSDPTVTAWYNDYFTSTNINVKVKFYDEEGQLMNLTGGLVNFSSLNRGNGSGAIDKDAIESVRNFNGRYIPISGSSIKIHENNSAYADSSNAEKSLGARWNTSEWDTTSSPNNWYGAIVGEITQSEISFNMASSKSGNIWFAFNSNINAIGVPTKPVAPTAPTQPMYETEKPLEPAPVAPSYENEPTPPVKTPDQPEPSKPEEPTYETEKPLEPAPVAPSYENEPTPPVKTPDQPEPSKPEEPNYETEKPLEPAPVAPSYENEPTPPVKIPDQPEPSKPEEPTYDPLPTPPLAPTPKQLPTPPVVPTVHFHYSSLLAQPQINKEIKNEDGVDIDRTLVAKQSIVKFELKTEALTAGRPKTTSFVLVDPLPTGYKFDLDATKAASTGFDTTYDEASHTVTFKATDETLATYNADLTKPVETLHPTVVGRVLNDGATYTNNFTLTVNDAYGIKSNVVRVTTPGKPNDPDNPNNNYIKPTKVNKNKEGLNIDGKEVLAGSTNYYELTWDLDQYKGDKSSKEAIQNGFYYVDDYPEEALDVRPDLVKVADEKGNQVSGVSVQQYDSLEAAPKKVQDLLKKANITVKGAFQLFSADNPEEFYKQYVATGTSLVITDPMTVKSEFGKTGGKYENKAYQIDFGNGYATEVVVNNVPKITPKKDVTVSLDPTSENLDGQTVQLYQTFNYRLIGGLIPQNHSEELEDYSFVDDYDQAGDQYTGNYKTFSSLNLTMKDGSVIKAGTDLTSQTTAETDATNGIVTVRFKEDFLQKISLDSPFQAETYLQMRRIAIGTFENTYVNTVNKVAYASNTVRTTTPIPRTPDKPTPIPTPKPKDPDKPETPKEPKVPSPKVEDPSAPIPVSVGKELTTLPKTGTNDATYMPYLGLAALVGFLGLGLAKRKED
# Assays:
# Assay in all cases: glycan array binding signal (z-score within array); higher = stronger binding
# Details in all cases: glycan notation: IUPAC condensed, linker removed
# [1] = molecular target: Fuc(a1-2)[Gal(a1-3)]Gal
# Procedure, shortened: (§1)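 The binding signal is a Z-score computed within each array. Data were drawn from 3228 arrays in the Consortium for Functional Glycomics database, restricted to those with a known protein sequence. Scores were averaged over arrays of the same protein sequence at different concentrations or buffers, and over linkers, and negative values can be taken as non-binding.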
# [2] = molecular target: Fuc(a1-2)[Gal(a1-3)]Gal(b1-3)GlcNAc
# Procedure, shortened: as §1
# [3] = molecular target: Fuc(a1-2)[Gal(a1-3)]Gal(b1-3)GlcNAc(b1-2)Man(a1-3)[Fuc(a1-2)[Gal(a1-3)]Gal(b1-3)GlcNAc(b1-2)Man(a1-6)]Man(b1-4)GlcNAc(b1-4)GlcNAc
# Procedure, shortened: as §1
# [4] = molecular target: Fuc(a1-2)[Gal(a1-3)]Gal(b1-4)Glc
# Procedure, shortened: as §1
# [5] = molecular target: Fuc(a1-2)[Gal(a1-3)]Gal(b1-4)GlcNAc
# Procedure, shortened: as §1
# [6] = molecular target: Fuc(a1-2)[Gal(a1-3)]Gal(b1-4)GlcNAc(b1-2)Man(a1-3)[Fuc(a1-2)[Gal(a1-3)]Gal(b1-4)GlcNAc(b1-2)Man(a1-6)]Man(b1-4)GlcNAc(b1-4)GlcNAc
# Procedure, shortened: as §1
# [7] = molecular target: Fuc(a1-2)[Gal(a1-3)]Gal(b1-4)[Fuc(a1-3)]GlcNAc
# Procedure, shortened: as §1
# [8] = molecular target: Fuc(a1-2)[Gal(a1-4)]Gal(b1-4)GlcNAc
# Procedure, shortened: as §1
# [9] = molecular target: Fuc(a1-2)[GalNAc(a1-3)]Gal
# Procedure, shortened: as §1
# [10] = molecular target: Fuc(a1-2)[GalNAc(a1-3)]Gal(b1-3)GalNAc(a1-3)[Fuc(a1-2)]Gal(b1-4)GlcNAc
# Procedure, shortened: as §1
# [11] = molecular target: Fuc(a1-2)[GalNAc(a1-3)]Gal(b1-3)GlcNAc
# Procedure, shortened: as §1
# [12] = molecular target: Fuc(a1-2)[GalNAc(a1-3)]Gal(b1-3)GlcNAc(b1-2)Man(a1-3)[Fuc(a1-2)[GalNAc(a1-3)]Gal(b1-3)GlcNAc(b1-2)Man(a1-6)]Man(b1-4)GlcNAc(b1-4)GlcNAc
# Procedure, shortened: as §1
# [13] = molecular target: Fuc(a1-2)[GalNAc(a1-3)]Gal(b1-4)Glc
# Procedure, shortened: as §1
# [14] = molecular target: Fuc(a1-2)[GalNAc(a1-3)]Gal(b1-4)GlcNAc
# Procedure, shortened: as §1
# [15] = molecular target: Fuc(a1-2)[GalNAc(a1-3)]Gal(b1-4)GlcNAc(b1-2)Man(a1-3)[Fuc(a1-2)[GalNAc(a1-3)]Gal(b1-4)GlcNAc(b1-2)Man(a1-6)]Man(b1-4)GlcNAc(b1-4)GlcNAc
# Procedure, shortened: as §1
# [16] = molecular target: Fuc(a1-2)[GalNAc(a1-3)]Gal(b1-4)GlcNAc(b1-3)Gal(b1-4)GlcNAc
# Procedure, shortened: as §1
# [17] = molecular target: Fuc(a1-2)[GalNAc(a1-3)]Gal(b1-4)GlcNAc(b1-3)Gal(b1-4)GlcNAc(b1-3)Gal(b1-4)GlcNAc
# Procedure, shortened: as §1
# [18] = molecular target: Fuc(a1-2)[GalNAc(a1-3)]Gal(b1-4)[Fuc(a1-3)]GlcNAc
# Procedure, shortened: as §1
# [19] = molecular target: Fuc(a1-2)[GalNAc(a1-4)]Gal(b1-4)GlcNAc
# Procedure, shortened: as §1
# [20] = molecular target: Fuc(a1-2)[GalNAc(b1-3)]Gal
# Procedure, shortened: as §1
# [21] = molecular target: Fuc(a1-3)GlcNAc
# Procedure, shortened: as §1
# [22] = molecular target: Fuc(a1-3)[Gal(b1-4)]Glc6S
# Procedure, shortened: as §1
# [23] = molecular target: Fuc(a1-3)[Gal(b1-4)]GlcNAc
# Procedure, shortened: as §1
# [24] = molecular target: Fuc(a1-3)[Gal(b1-4)]GlcNAc(b1-2)Man(a1-3)[Fuc(a1-3)[Gal(b1-4)]GlcNAc(b1-2)Man(a1-6)]Man(b1-4)GlcNAc(b1-4)GlcNAc
# Procedure, shortened: as §1
# [25] = molecular target: Fuc(a1-3)[Gal(b1-4)]GlcNAc(b1-3)Gal(b1-3)[Fuc(a1-4)]GlcNAc
# Procedure, shortened: as §1
# [26] = molecular target: Fuc(a1-3)[Gal(b1-4)]GlcNAc(b1-3)GalNAc
# Procedure, shortened: as §1
# [27] = molecular target: Fuc(a1-3)[Gal(b1-4)]GlcNAc(b1-4)Gal(b1-4)[Fuc(a1-3)]GlcNAc
# Procedure, shortened: as §1
# [28] = molecular target: Fuc(a1-3)[Gal(b1-4)]GlcNAc(b1-4)Gal(b1-4)[Fuc(a1-3)]GlcNAc(b1-4)Gal(b1-4)[Fuc(a1-3)]GlcNAc
# Procedure, shortened: as §1
# [29] = molecular target: Fuc(a1-3)[Gal(b1-4)]GlcNAc(b1-6)[Gal(b1-3)GlcNAc(b1-3)]Gal(b1-4)Glc
# Procedure, shortened: as §1
# [30] = molecular target: Fuc(a1-3)[Gal(b1-4)]GlcNAc6S
# Procedure, shortened: as §1
# [31] = molecular target: Fuc(a1-3)[Gal3S(b1-4)]GlcNAc
# Procedure, shortened: as §1
# [32] = molecular target: Fuc(a1-3)[Gal3S(b1-4)]GlcNAc6S
# Procedure, shortened: as §1
# [33] = molecular target: Fuc(a1-3)[GalNAc(b1-4)]GlcNAc
# Procedure, shortened: as §1
# [34] = molecular target: Fuc(a1-4)GlcNAc
# Procedure, shortened: as §1
# [35] = molecular target: Fuc(b1-3)GlcNAc
# Procedure, shortened: as §1
# [36] = molecular target: Gal(a1-2)Gal
# Procedure, shortened: as §1
# [37] = molecular target: Gal(a1-3)Gal
# Procedure, shortened: as §1
# [38] = molecular target: Gal(a1-3)Gal(b1-3)GlcNAc
# Procedure, shortened: as §1
# [39] = molecular target: Gal(a1-3)Gal(b1-3)GlcNAc(b1-2)Man(a1-3)[Gal(a1-3)Gal(b1-3)GlcNAc(b1-2)Man(a1-6)]Man(b1-4)GlcNAc(b1-4)GlcNAc
# Procedure, shortened: as §1
# [40] = molecular target: Gal(a1-3)Gal(b1-3)[Fuc(a1-4)]GlcNAc(b1-2)Man(a1-3)[Gal(a1-3)Gal(b1-3)[Fuc(a1-4)]GlcNAc(b1-2)Man(a1-6)]Man(b1-4)GlcNAc(b1-4)GlcNAc
# Procedure, shortened: as §1
# [41] = molecular target: Gal(a1-3)Gal(b1-4)Glc
# Procedure, shortened: as §1
# [42] = molecular target: Gal(a1-3)Gal(b1-4)GlcNAc
# Procedure, shortened: as §1
# [43] = molecular target: Gal(a1-3)Gal(b1-4)GlcNAc(b1-3)GalNAc
# Procedure, shortened: as §1
# [44] = molecular target: Gal(a1-3)Gal(b1-4)[Fuc(a1-3)]GlcNAc
# Procedure, shortened: as §1
# [45] = molecular target: Gal(a1-3)Gal(b1-4)[Fuc(a1-3)]GlcNAc(b1-2)Man(a1-3)[Gal(a1-3)Gal(b1-4)[Fuc(a1-3)]GlcNAc(b1-2)Man(a1-6)]Man(b1-4)GlcNAc(b1-4)GlcNAc
# Procedure, shortened: as §1
binder,measurement,setting,value
B1,glycan array binding signal (z-score),[1],-0.179
same,glycan array binding signal (z-score),[2],0.381
same,glycan array binding signal (z-score),[3],0.227
same,glycan array binding signal (z-score),[4],0.486
same,glycan array binding signal (z-score),[5],0.017
same,glycan array binding signal (z-score),[6],2.31
same,glycan array binding signal (z-score),[7],-0.352
same,glycan array binding signal (z-score),[8],1.02
same,glycan array binding signal (z-score),[9],0.857
same,glycan array binding signal (z-score),[10],-0.697
same,glycan array binding signal (z-score),[11],-1.06
same,glycan array binding signal (z-score),[12],-0.556
same,glycan array binding signal (z-score),[13],-1.27
same,glycan array binding signal (z-score),[14],-0.127
same,glycan array binding signal (z-score),[15],1.04
same,glycan array binding signal (z-score),[16],0.001
same,glycan array binding signal (z-score),[17],1.31
same,glycan array binding signal (z-score),[18],0.08
same,glycan array binding signal (z-score),[19],-0.891
same,glycan array binding signal (z-score),[20],0.761
same,glycan array binding signal (z-score),[21],0.435
same,glycan array binding signal (z-score),[22],1.58
same,glycan array binding signal (z-score),[23],-0.041
same,glycan array binding signal (z-score),[24],1.67
same,glycan array binding signal (z-score),[25],-0.232
same,glycan array binding signal (z-score),[26],0.466
same,glycan array binding signal (z-score),[27],0.662
same,glycan array binding signal (z-score),[28],-0.63
same,glycan array binding signal (z-score),[29],-0.41
same,glycan array binding signal (z-score),[30],0.604
same,glycan array binding signal (z-score),[31],-0.676
same,glycan array binding signal (z-score),[32],0.242
same,glycan array binding signal (z-score),[33],-0.177
same,glycan array binding signal (z-score),[34],0.463
same,glycan array binding signal (z-score),[35],1.4
same,glycan array binding signal (z-score),[36],-0.319
same,glycan array binding signal (z-score),[37],-0.258
same,glycan array binding signal (z-score),[38],-0.597
same,glycan array binding signal (z-score),[39],1.79
same,glycan array binding signal (z-score),[40],1.81
same,glycan array binding signal (z-score),[41],0.319
same,glycan array binding signal (z-score),[42],0.308
same,glycan array binding signal (z-score),[43],2.02
same,glycan array binding signal (z-score),[44],0.663
same,glycan array binding signal (z-score),[45],0.284

# Two records drawn at random from the list so far, as already listed:
binder,measurement,setting,value
B1,glycan array binding signal (z-score),[16],0.001
same,glycan array binding signal (z-score),[21],0.435

# Source: the supplement of paper PMC8728848
